Data on seven molecules can be found in publication PMC5351981.

Protein sequences, listed by entry. Tags and fused reporters are not part of them. Lines headed by an entry give the natural chain unless they say otherwise; changes in a name come on top.
UniProt Q08605: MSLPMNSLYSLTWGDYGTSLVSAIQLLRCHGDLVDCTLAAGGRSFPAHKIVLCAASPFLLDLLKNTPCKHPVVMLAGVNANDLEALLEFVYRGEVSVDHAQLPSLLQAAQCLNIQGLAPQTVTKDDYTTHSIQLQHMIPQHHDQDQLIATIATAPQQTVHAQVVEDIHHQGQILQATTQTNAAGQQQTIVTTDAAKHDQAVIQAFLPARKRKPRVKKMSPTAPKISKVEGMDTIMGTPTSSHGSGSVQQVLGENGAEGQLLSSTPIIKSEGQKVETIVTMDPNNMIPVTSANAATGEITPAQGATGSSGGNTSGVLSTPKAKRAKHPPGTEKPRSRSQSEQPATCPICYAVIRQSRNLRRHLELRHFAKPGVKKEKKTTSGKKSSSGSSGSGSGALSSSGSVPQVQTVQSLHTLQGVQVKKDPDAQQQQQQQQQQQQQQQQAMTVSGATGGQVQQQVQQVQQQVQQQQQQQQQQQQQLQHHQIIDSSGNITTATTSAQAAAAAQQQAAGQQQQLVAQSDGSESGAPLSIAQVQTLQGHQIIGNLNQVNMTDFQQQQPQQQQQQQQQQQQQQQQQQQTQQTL

First the molecules themselves.
B1: l(1)G0020 (protein, UniProt Q9W3C1 1-1008)
chain: MVKKKIDNRIRVMIENGVKLGHRTMFIVIGDKARDQVPILYDILTKSTVKARPTVLWCYKNKDEAISNHGKKRAKKIAVGKVDVNEADLFDSFRVATTIHGRYYSETHAVLGRTYGVCVLQDFEALTPNLLARTVETVEGGGLIILLLKTLQSLKQLYTMSMDVHKRFRTEAHQTVTCRFNERLILSLADCKRCLVVNDDLTVLPLSSKTINVEPVNPAGAGRSPNEASLKELKESLLTVQPAGALVNLCKTYDQANAVAQFIEALVDKQLKPPMSLTAARGRGKSAALGLSIAAAVAFGYVNIYVTSPHPENLITLFEFVLKGFDALEYQEHADYTIIRSTNADYKKAIIRINITRSSRQTIQYIAPSDTHLLNAADLLLIDEAAAIPLPLVKKMIGPYLVFMASTINGYEGTGRSLSLKLISQLQKDNNARPPLKLEESIRYQENDDIEKWLINLLCLDASTVPSISSGCPTPDACELYYVDRDALFSYHKAAEAFLHRLVSIYVSSHYKNTPNDLQMMSDAPAHHLFCLLGPVQRMDALPEILVVIQVALEGQISAQSISDSLGRGKKAAGDLIPWNVAEQYGDRDFPKLCGVRIVRVATHPNYQRMGYGKRAIQLLKDYYARKHTNLEDGPVASKDAGKGIEEVEEEELSLLKEQIRPRSRIPTLLQRLHERVPEHVDYIGTSYGLTTELLKFWKNAGFVPVYLSQKSNELTAEHSCIMLHTPNATPWLGLYYQDFRRRVLKLMGKTFREFETKLCLALLKNKSVDTEGSALKVLDKPMLDVYFLPHDLQRLESYARQQSEFRLIIDLLTDIAQLYFQGRIDGLQLDLVQQGILLALGVQGKTVDALGLELNMPGNQLLAKFFDAMKRCNQCFRSVLEEHIEGGMLREADLSKGEELQPLTLSLDKELDQTAQKLSKQQRKELKRLKAEQLDEFQIKGTEEDWSKALETNGTGGGSGLLSVKSGVKRLDGPIETREDGDLAAPLSKKKKKNNPKQRRSQGKSLI
B2: Sfmbt (protein, UniProt Q9VK33 1-1220)
chain: MNPSELRMMWMSSQYNSERITLEDAATLLGHPTVGLSVMEDLSAHQPTLDMNPMMSLMGGDFTGQAAATAAALGVQPGTLIATNSNNLYGFAHMGGLQQQLLQQSAAAAVFQNYAEAMDNDVENGMVGMAMEAVVDDDDQVYGQRDNNFDDNGSELEPKQEIINIDDFVMMNEDNNSYDGTDFMTSSDKDISQSSSSCMAQMPGSLGVPGVEHDLLVPLPDGLLHHKLLGTTLVPAMGTLNGNAFGNIMVSTENTSSKQMQRTYSTAKGANSTATTATCSASTSSALRSQRKTRKIEPVNRPGLVLKTPIAYRGNIDPSVIPIQKDGMAVCKRCGAIGVKHTFYTKSRRFCSMACARGELYSLVLNTKMEGDQATTSSPDPGAGSESADLPGDQQQSQSDIELDLHAAHIKNANYRFRITDQSKITQLNSFGEPMSMGGDAAANNVQMAADETIAALNGGAVGDATAPGSTEEGASTPNSYLSAAPTPKALRLFKDIYPQDDLPQIPKYERLPVPCPQMEKIISIRRRMYDPTHSYDWLPRLSKENFNAAPVTCFPHAPGCEVWDNLGVGMKVEVENTDCDSIEVIQPGQTPTSFWVATILEIKGYKALMSYEGFDTDSHDFWVNLCNAEVHSVGWCATRGKPLIPPRTIEHKYKDWKDFLVGRLSGARTLPSNFYNKINDSLQSRFRLGLNLECVDKDRISQVRLATVTKIVGKRLFLRYFDSDDGFWCHEDSPIIHPVGWATTVGHNLAAPQDYLERMLAGREAMIEVHEDDATIELFKMNFTFDEYYSDGKTNSFVEGMKLEAVDPLNLSSICPATVMAVLKFGYMMIRIDSYQPDASGSDWFCYHEKSPCIFPAGFCSVNNISVTPPNGYDSRTFTWEGYLRDTGAVAAGQHLFHRIIPDHGFEVGMSLECADLMDPRLVCVATVARVVGRLLKVHFDGWTDEYDQWLDCESADIYPVGWCVLVNHKLEGPPRVAHQQAPKPAPKPKIQRKRKPKKGAAGGKTPTDNNTQSVKSRTIALKTTPHLPKLSIKLELKPEHHNAAFYENNQPEEEGDEEDPDADGDGDGSTSHISEQSTTQSSSDLIAGSGSGSGSASLVTLATGSNKTNSSATNNKYIPRLADIDSSEPHLELVPDTWNVYDVSQFLRVNDCTAHCDTFSRNKIDGKRLLQLTKDDIMPLLGMKVGPALKISDLIAQLKCKVNPGRARSHKTNKSPFL
B3: Batman (Lolal) (protein, UniProt Q7KRI2 1-127)
chain: MMSSDQQFFLKWNDFQTNMVTSFRHLRDEKSFTDVTLACEGQTCKAHKMVLSACSPYFKALLEENPSKHPIIILKDVSYIHLQAILEFMYAGEVNVSQEQLPAFLKTADRLKVKGLAETPSSIKREG
B4: Su(z)12 (protein, UniProt Q9NJG9 1-900)
chain: MAPAKKREKDSNPDGSAANGIIGLTHGAPDASNAGSTVPPTAEGQVKLNGHQQEQELFLQAFEKPTQIYRYLRNRHETNPIFLNRTLSYMKERMSRNNKKRISFQVNSMLESITQKSEAVSQNYLHVIYDSLHEKLPARLDNESGEDLLQEQLLCEAGESVSVETTLYKITRSKRKDSTLDFQELLSKCSQIVYNPKDRVGEHATISIPLQTMRPMGEQHTLYKLLFRIKVLSPSTCNDENAETPPNKRSRPNEKMFGSELILYEKSSGFITEGEYEAMLQPLNSTSIKSFSPKKCTWETMPDSYIPLSLTYDVYQQSPMLKFHLTLSNEQLPEMISAPELQRYVQHLDAVAEMNYNNNNYNNNNNCSGLKNGSGGGNSTVCKTTPEHIQIVYNFMYSNNTRQQTEYTQELNCPWCGLDCLRLYALLKHLKLCHARFNFTYQPAGSGARIDVTINDAYDGSYAGSPYDLAGPSGSSFARTCGPVRRTSVTSLMVCRPRRQKTCLDEFLELDEDEISNQRSYITGHNRLYHHTETCLPVHPKELDIDSEGESDPLWLRQKTIQMIDEFSDVNEGEKELMKLWNLHVMRHGFVGDCQLPIACEMFLDAKGTEIVRKNLYRNFILHMCSLFDYGLIAAETVYKTVQKLQGLLSKYAAGQELMQRQREEQLKYWLDVGMHKKQEDPKTLKSPQKPAPPADQASTSSASTSGSGSGSSSMQPPKRMPAHLKRGSAASSPGVQSKGTENGTNGSNSSSSNSKNVAKKSADQPLSTLANTRERRSEYGQKRNVSGSRLAATPASKRKLSSKDNTVLNKRQRYSDGSPGTGIGNGHGGGSGSGANRNKSNNHSLPATSNNASSSSSNSKRAIARRRSTSERTKASGSTGGGAGGVRTRLSVPAKYERR
B5: Adf1 (protein, UniProt P05552 1-262)
chain: MHTLTAAIEMDKLDANLEQQFDLNLIEAVKLNPVIYDRSHYNYKHFVRKAQTWKQIAETLGVPEQKCTKRWKSLRDKFAREMKLCQESRWRYFKQMQFLVDSIRQYRESLLGKCANGSQSANQVADPSQQQQAQQQTVVDIFAQPFNGSATTSAQALTHPHEITVTSDAQLATAVGKDQKPYFYEPPLKRERSEEEHSDNMLNTIKIFQNNVSQAVSAEDQSFGMVVTDMLNTLGVRQKAEAKVHIIKYLTDMQLLAQHNKY
B6: Sce/dRing (protein, UniProt Q9VB08 1-435)
chain: MTSLDPAPNKTWELSLYELQRKPQEVITDSTEIAVSPRSLHSELMCPICLDMLKKTMTTKECLHRFCSDCIVTALRSGNKECPTCRKKLVSKRSLRADPNFDLLISKIYPSREEYEAIQEKVMAKFNQTQSQQALVNSINEGIKLQSQNRPQRFRTKGGGGGGGGGGNGNGAANVAAPPAPGAPTAVGRNASNQMHVHDTASNDSNSNTNSIDRENRDPGHSGTSAASAITSASNAAPSSSANSGASTSATRMQVDDASNPPSVRSTPSPVPSNSSSSKPKRAMSVLTSERSEESESDSQMDCRTEGDSNIDTEGEGNGELGINDEIELVFKPHPTEMSADNQLIRALKENCVRYIKTTANATVDHLSKYLAMRLTLDLGADLPEACRVLNFCIYVAPQPQQLVILNGNQTLHQVNDKFWKVNKPMEMYYSWKKT
B7: NURF-38 (protein, UniProt O77460 1-338)
chain: MLAKITRSSFYASRAVGRLSGSIPTSPAALASNCRYIQIERKRTKSHEMALYETVEKGAKNSPSYSLYFKNKCGNVISPMHDIPLYANEEKTIYNMVVEVPRWTNAKMEISLKTPMNPIKQDIKKGKLRFVANCFPHKGYIWNYGALPQTWENPDHIEPSTGCKGDNDPIDVIEIGYRVAKRGDVLKVKVLGTIALIDEGETDWKIIAIDVNDPLASKVNDIADVDQYFPGLLRATVEWFKIYKIPDGKPENQFAFNGDAKNADFANTIIAETHKFWQNLVHQSPASGSISTTNITNRNSEHVIPKEEAEKILAEAPDGGQVEEVSDTVDTWHFIHLK

Results are given in words; binding and its absence hold for the method and conditions named. Binding seen in cells or lysates may run through a third protein. A yes stands for co-enrichment or nearness to the bait. Other partners may have been found.

The assay has as its target GAGA factor (GAF) (Drosophila melanogaster (endogenous in embryos)) (UniProt Q08605). As to the kind of experiment: affinity purification with mass spectrometry; GAF polyclonal antibody coupled to protein A Sepharose; 10 mg nuclear extract of 0-12 h embryos, HEMG-150, 2 h; washed with HEMG-500 plus 0.1% Nonidet P-40; eluted with 0.1 M glycine pH 2.5; triplicate; mock: protein A Sepharose with no antibody.
With B1, the binding result was “binds”. In the case of B2 it was “binds weakly”; in that of B3, “binds”. B4: the binding result is “binds”. The same measure for B5: “binds”; for B6: “binds weakly”. Consider B7, for which the binding entry is recorded as “binds”.
